Among all 340,000 compounds or so, about 6,200 (1.8%) were called active. Inconclusive means that the source gave no clear call. Such entries were picked first, then a sample of the others. Calls come from the whole dose curve; as a rule, active = well fitted activation curve with a large enough effect; inconclusive = small, poorly fitted or top-dose-only effect; inactive = no such curve, though single readings can be large or run the other way. Potencies of inconclusive entries are doubtful fits and often do not repeat.
assay: A quantitative high throughput screen for small molecules that induce DNA re-replication in SW480 colon adenocarcinoma cells.; note: nearly all actives have a fitted effect of over 55% in size; details: Hoechst DNA content imaging, 48 h; series mostly up to 46.1 µM
Procedure, shortened: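 Image-based DNA-content assay: after two days of treatment, nuclei were labelled with the DNA dye Hoechst and imaged, and hits were compounds raising the count of nuclei showing high fluorescence intensity.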
Potency is the fitted concentration of half-maximal effect.

SMILES	Potency
COc1ccc(-n2c(=S)[nH]c3c(oc4ccccc43)c2=O)cc1	inactive
O=Cc1c(Sc2ccccc2)nc2ccccn2c1=O	inactive
Cc1ccc2c(Cl)c(Cc3ccccc3)c(=S)[nH]c2n1	inactive
NS(=O)(=O)c1ccc(S(=O)(=O)NCCc2ccccc2)cc1	inconclusive: 23.1 µM [activator, partial curve, poor fit]
OCC1(Cc2ccccc2)CCN(Cc2cccc(F)c2F)CC1	inconclusive: 6.51 µM [activator, full curve]
Cc1cc(NC(=O)C(C)Oc2ccccc2)no1 (configuration not stated)	inactive
Cc1ccc(C(=O)NC(=S)NNS(=O)(=O)c2ccccc2)cc1	inactive
Cc1ccccc1N1CCN(S(=O)(=O)c2ccccc2)CC1	inactive
CCc1ccccc1NC(=O)CN(C)S(=O)(=O)c1ccc(-c2ccc(=O)[nH]n2)s1	inconclusive: 2.06 µM [activator, partial curve]
Cc1ccc(-n2c(=O)c3sccc3n(Cc3cc(=O)n4cc(Cl)ccc4n3)c2=O)cc1F	inactive
CCN(CC)CCCN(C(=O)c1ccccc1F)c1nc(-c2ccc(OC)cc2)cs1	inconclusive: 29.1 µM [activator, single point]
CNc1nc(C23CC4CC(CC(C4)C2)C3)cs1	inactive
C[C@]12CCC[C@H](O1)c1c(cc3c(c1O)C(=O)c1c(O)cc(O)cc1C3=O)O2	inactive
COc1cc2[nH]c3c(=O)n4c(nc3c2cc1OC)SCCC4	inconclusive: 23.1 µM [activator, single point]
CC(C)CN(C(=O)c1ccc([N+](=O)[O-])s1)c1c(N)n(Cc2ccccc2)c(=O)[nH]c1=O	inconclusive: 18.4 µM [activator, single point]
CCOC(=O)C1=C(C)N=C2SCCC(=O)N2[C@@H]1/C=C/c1ccccc1	inconclusive: 29.1 µM [activator, single point]
CCc1cc2c(=O)c(-c3nc4ccccc4n3C)coc2c(CN2CCCCC2)c1O	inactive
CCC(c1ccc(O)cc1)C(CC)c1ccc(O)cc1 (configuration not stated)	inconclusive: 1.12 µM [activator, partial curve, poor fit]
O=C(N/C=N/OCc1ccc(Cl)cc1Cl)NOCc1c(Cl)cccc1Cl	inactive
Cn1c(=O)c2c(nc(CN3CCc4ccccc4C3)n2Cc2ccc(F)cc2)n(C)c1=O	inconclusive: 20.6 µM [activator, single point]
Cc1ccc(S(=O)(=O)CCC(=O)OCC(=O)NC2CCS(=O)(=O)C2)cc1 (configuration not stated)	inactive
COCC1CCCCN1C(=O)c1ccc(OC2CCN(CCc3ccccc3)CC2)cc1 (configuration not stated)	inactive
O=C(Nc1cccc(C(F)(F)F)c1)c1cccnc1NCCc1ccccc1	inactive
O=C(Nc1ccccc1)Nc1cccn(Cc2c(F)cccc2Cl)c1=O	inactive

SMILES	Potency
COc1ccc(C(CNC(=O)c2cccc(S(=O)(=O)Nc3ccccc3OC)c2)N2CCCC2)cc1 (configuration not stated)	inconclusive: 29.1 µM [activator, single point]
Cc1cccn2c(=O)c3cc(C(=O)NCCc4ccccc4)sc3nc12	inconclusive: 29.1 µM [activator, single point]
CCN(CC)CCCN(C(=O)c1ccco1)c1nc(-c2ccc(Cl)cc2)cs1	inconclusive: 29.1 µM [activator, single point]
O=C(NCc1ccccc1)C(Cc1ccccc1)N1C(=O)C2C3CCC(C3)C2C1=O (configuration not stated)	inactive
CCOC(=O)C1CCN(c2cc3c(cc2NC(=O)c2cc(OC)ccc2Br)n(C)c(=O)n3C)CC1	inconclusive: 29.1 µM [activator, single point]
O=c1[nH]c(=O)n(C2OC(CO)C(O)C2O)cc1F (configuration not stated)	active: 1.03 µM
Cc1nnc(C)c2c(C)n(-c3ccccc3)c(C)c12	inactive
CCNC(=O)CSc1nc(-c2ccc(F)cc2)cs1	inactive
Clc1ccc(CSc2nccn2Cc2ccccc2)cc1	inconclusive: 29.1 µM [activator, partial curve, poor fit]
CCCCNC(=O)COC(=O)c1ccccc1F	inactive
COc1ccccc1N1CCN(Cc2cc(Br)c(O)c3ncccc23)CC1	active: 5.17 µM
Cc1ccc(C(=O)O/N=C(\N)Cc2ccc([N+](=O)[O-])cc2)c(Cl)c1	inconclusive: 29.1 µM [activator, single point]
CC(C)(C)C(=O)N1CCN(c2ccc([N+](=O)[O-])c(NCc3cccnc3)c2)CC1	inactive
CCOC(=O)[C@H]1[C@H]2COc3ccc(C)cc3[C@@H]2N2C(=O)c3cc(Br)ccc3NC(=O)[C@@]12C	inconclusive: 18.4 µM [activator, partial curve, poor fit]
CCOC(=O)c1sc(NC(=O)CCN2CCCCCC2)c(C(=O)OCC)c1C	inconclusive: 18.4 µM [activator, single point]
Cc1cc(C)c2[nH]c(=O)c(CN(CC3CCCO3)S(=O)(=O)c3ccc4c(c3)OCCO4)cc2c1 (configuration not stated)	inactive
Cc1cc(Br)cc2c(C(=O)NCC3CCCO3)cc(-c3cccs3)nc12 (configuration not stated)	inconclusive: 29.1 µM [activator, single point]
COc1cccc(CNCc2cccc(OC)c2O)c1O	inactive
CCOC(=O)N1CCN(C(=O)CSCC(=O)N=c2sc3cc(OC)ccc3n2C)CC1	inactive
CCOc1cc(S(=O)(=O)N2CCN(Cc3ccccc3)CC2)ccc1Br	inconclusive: 29.1 µM [activator, single point]
COc1c(O[C@@H]2O[C@H](CO)[C@@H](O)[C@H](O)[C@H]2O)cc2c(c1OC)-c1ccc(SC)c(=O)cc1C(NC(C)=O)CC2 (some centres not stated)	inconclusive: 29.1 µM [activator, single point]
CC(=O)Nc1c(Cl)c(Cl)c2c(c1Cl)Cc1cc(Cl)ccc1-2	inactive
CC(=NNc1nc2ccccc2s1)c1ncccn1	inconclusive: 0.058 µM [activator, full curve, poor fit]
O=C(Cc1ccc(NS(=O)(=O)c2ccc(F)cc2)cc1)NCc1cccnc1	inactive

Single entries from the results shown:
For Potency, CCOC(=O)C1CCN(c2cc3c(cc2NC(=O)c2cc(OC)ccc2Br)n(C)c(=O)n3C)CC1 reads inconclusive: 29.1 µM [activator, single point]
For Potency, COc1ccc(C(CNC(=O)c2cccc(S(=O)(=O)Nc3ccccc3OC)c2)N2CCCC2)cc1 (configuration not stated) reads inconclusive: 29.1 µM [activator, single point]
For Potency, Cc1ccc(C(=O)O/N=C(\N)Cc2ccc([N+](=O)[O-])cc2)c(Cl)c1 reads inconclusive: 29.1 µM [activator, single point]
For Potency, CCOC(=O)[C@H]1[C@H]2COc3ccc(C)cc3[C@@H]2N2C(=O)c3cc(Br)ccc3NC(=O)[C@@]12C reads inconclusive: 18.4 µM [activator, partial curve, poor fit]

Additional records follow.

SMILES	Potency
O=C(CN1CCCC1)NN=C(c1ccccc1)c1ccccc1	inconclusive: 0.199 µM [activator, partial curve, poor fit]
O=C(Cc1ccc(Br)cc1)Nc1cccc(Cl)c1	inconclusive: 29.1 µM [activator, partial curve, poor fit]
CCC(C)NC(=O)Cn1nc(C(F)(F)F)c2c1CCC2 (configuration not stated)	inconclusive: 3.55 µM [activator, single point]
C=CCc1ccccc1OCC(=O)N/N=C/c1ccc(OC(C)=O)cc1OC(C)=O	inconclusive: 0.517 µM [activator, full curve, poor fit]
CCN(CC)CCOC(=O)c1ccc(N/C=C(/C#N)c2nc(-c3cccc(OC)c3)cs2)cc1	inactive
COc1ccc(NC2=C(Cl)C(=O)N(CCc3ccccc3)C2=O)cc1	inactive
COc1ccc(C(=O)N/N=C/C(=O)c2ccccc2)cc1	inactive
COc1ccccc1N1CCN(C(=O)c2cc(-c3cccc(Cl)c3)on2)CC1	inconclusive: 35.5 µM [activator, partial curve, poor fit]
CN1CCN(S(=O)(=O)c2cccc(C(=O)Nc3sc4c(c3C(N)=O)CCCC4)c2)CC1	inactive
Cc1ncc([N+](=O)[O-])n1CCOC(=O)NC(NCc1ccccc1Cl)C(Cl)(Cl)Cl (configuration not stated)	inconclusive: 6.51 µM [activator, single point]
COC(=O)C1C(=O)C2=C(CC1C)NC(C)=C(C(=O)OC1CCCCC1)C2c1ccc(N(C)C)cc1 (configuration not stated)	inconclusive: 29.1 µM [activator, partial curve, poor fit]
CCc1ccc(N2CC(C(=O)Nc3ccc(S(=O)(=O)N4CCOCC4)cc3)CC2=O)cc1 (configuration not stated)	inactive
COc1ccc(CCNC(=O)CSC2=NS(=O)(=O)c3cc(Cl)ccc3N2)cc1OC	inconclusive: 6.51 µM [activator, single point]
CC1(C)C(=O)N(c2ccccc2)C1c1ccccc1O (configuration not stated)	inconclusive: 29.1 µM [activator, single point]
CC(=O)N(Cc1ccc(Br)cc1)c1ccccc1C(=O)O	active: 2.59 µM
O=C(NC(=S)NCCc1ccccn1)c1ccccc1	inactive
CCC(c1nnnn1C1CCCC1)N(Cc1cccs1)Cc1cc2cc(C)ccc2[nH]c1=O (configuration not stated)	inconclusive: 29.1 µM [activator, single point]
COc1ccccc1CN(C)S(=O)(=O)c1cccs1	inconclusive: 29.1 µM [activator, single point]
CCOc1cc(NC(=O)c2ccco2)c(OCC)cc1NC(=O)c1cc(OC)c(OC)c(OC)c1	inconclusive: 9.2 µM [activator, partial curve]
O=C(CCNS(=O)(=O)c1ccccc1C(F)(F)F)N1CCN(S(=O)(=O)c2cccc(Cl)c2)CC1	inconclusive: 5.8 µM [activator, partial curve, poor fit]
Cc1ccc(-c2cc(C(=O)NCCCn3ccnc3)c3cc(Br)ccc3n2)o1	inconclusive: 29.1 µM [activator, partial curve, poor fit]
COc1ccc(-c2nc3ccccc3c(C(=O)Nc3ccc(S(=O)(=O)Nc4cc(C)on4)cc3)c2C)cc1	inconclusive: 11.6 µM [activator, partial curve, poor fit]
CCCc1nnc(NC(=O)CCC(=O)N2CCN(CCOc3ccc(C)cc3)CC2)s1	inactive
Cc1cc2c(c(/C=C/C(=O)c3ccccc3)c1)OC1(C=C2)Oc2ccccc2C(=O)N1C (configuration not stated)	active: 3.66 µM

Source: PubChem BioAssay AID624297 (National Center for Advancing Translational Sciences (NCATS), 2012)
